# Results from US5618726A, “Biodegradable azo dyes” (priority 1994, dated 1997).
# For at least one compound, name, drawing or mass did not settle the structure.
# Test system: Streptomyces spp.
# Experiment: Decolorization of naphthol azo dyes by Streptomyces spp.
# Format: cell-based
# Excerpt: Microbiol., 1984, 130:2905-2913.
# Replicate sterile controls also were run in each experiment.
smiles,measurement,value
"O=S(=O)(O)c1ccc(N=Nc2ccc(O)c3ccccc23)cc1 [Azo dye 32, 4-(4-hydroxy-naphthylazo)-benzenesulfonic acid]",Decolorization by Streptomyces spp.,decolorized
